Test results: paper PMC5725494, “Cell cycle-dependent phosphorylation regulates RECQL4 pathway choice and ubiquitination in DNA double-strand break repair”
Positions count from the first letter of the chain named. Results are given in words; binding and its absence hold for the method and conditions named. In cells and extracts the contact can be indirect. Some results given as binding are weak or reduced against the parent protein; the word gives no strength. Tags and fused reporters may be left off the sequences shown.

Sequences of proteins named here, by UniProt entry; tags and fusion partners are left off.
UniProt Q16531: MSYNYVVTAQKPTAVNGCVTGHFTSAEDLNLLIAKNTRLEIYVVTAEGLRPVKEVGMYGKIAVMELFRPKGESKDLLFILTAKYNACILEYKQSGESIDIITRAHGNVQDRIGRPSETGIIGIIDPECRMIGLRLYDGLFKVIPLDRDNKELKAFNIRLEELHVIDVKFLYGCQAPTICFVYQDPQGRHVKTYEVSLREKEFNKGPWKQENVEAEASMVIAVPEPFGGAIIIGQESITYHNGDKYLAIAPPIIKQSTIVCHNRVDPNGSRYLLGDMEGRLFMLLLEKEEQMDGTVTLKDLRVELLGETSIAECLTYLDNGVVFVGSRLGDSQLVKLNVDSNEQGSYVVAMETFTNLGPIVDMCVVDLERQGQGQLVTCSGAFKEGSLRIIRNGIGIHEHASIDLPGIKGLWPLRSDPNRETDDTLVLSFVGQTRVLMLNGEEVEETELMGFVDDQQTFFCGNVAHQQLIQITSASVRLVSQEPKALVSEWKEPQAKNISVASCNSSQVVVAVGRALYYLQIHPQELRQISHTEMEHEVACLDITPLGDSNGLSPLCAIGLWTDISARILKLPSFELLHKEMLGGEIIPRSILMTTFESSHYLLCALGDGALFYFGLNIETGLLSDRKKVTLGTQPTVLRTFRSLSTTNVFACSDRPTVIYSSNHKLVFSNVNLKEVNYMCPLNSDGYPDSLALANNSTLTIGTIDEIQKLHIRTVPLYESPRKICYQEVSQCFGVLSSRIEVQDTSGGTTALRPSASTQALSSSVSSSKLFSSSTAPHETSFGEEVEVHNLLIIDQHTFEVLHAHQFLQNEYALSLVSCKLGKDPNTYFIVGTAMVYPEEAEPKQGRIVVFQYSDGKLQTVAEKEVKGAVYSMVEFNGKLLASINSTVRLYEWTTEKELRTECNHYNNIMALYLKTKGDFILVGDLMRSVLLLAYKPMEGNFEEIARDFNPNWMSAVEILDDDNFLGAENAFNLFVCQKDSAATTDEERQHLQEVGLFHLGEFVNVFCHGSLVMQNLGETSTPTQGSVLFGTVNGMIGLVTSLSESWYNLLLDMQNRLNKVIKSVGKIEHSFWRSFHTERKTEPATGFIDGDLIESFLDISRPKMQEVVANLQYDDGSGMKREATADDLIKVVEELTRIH

What was measured:
[1] = biological target: T1, 3×FLAG-tagged RECQL4 (wild type, full length) (human) (UniProt O94761); assay: co-IP; M2 FLAG beads on lysate (2 mg protein) of HEK293T cells expressing 3×FLAG-tagged RECQL4, mutants or truncations, overnight at 4 °C; lysis buffer 2 with Benzonase; Western blotting of endogenous partners
T1 sequence: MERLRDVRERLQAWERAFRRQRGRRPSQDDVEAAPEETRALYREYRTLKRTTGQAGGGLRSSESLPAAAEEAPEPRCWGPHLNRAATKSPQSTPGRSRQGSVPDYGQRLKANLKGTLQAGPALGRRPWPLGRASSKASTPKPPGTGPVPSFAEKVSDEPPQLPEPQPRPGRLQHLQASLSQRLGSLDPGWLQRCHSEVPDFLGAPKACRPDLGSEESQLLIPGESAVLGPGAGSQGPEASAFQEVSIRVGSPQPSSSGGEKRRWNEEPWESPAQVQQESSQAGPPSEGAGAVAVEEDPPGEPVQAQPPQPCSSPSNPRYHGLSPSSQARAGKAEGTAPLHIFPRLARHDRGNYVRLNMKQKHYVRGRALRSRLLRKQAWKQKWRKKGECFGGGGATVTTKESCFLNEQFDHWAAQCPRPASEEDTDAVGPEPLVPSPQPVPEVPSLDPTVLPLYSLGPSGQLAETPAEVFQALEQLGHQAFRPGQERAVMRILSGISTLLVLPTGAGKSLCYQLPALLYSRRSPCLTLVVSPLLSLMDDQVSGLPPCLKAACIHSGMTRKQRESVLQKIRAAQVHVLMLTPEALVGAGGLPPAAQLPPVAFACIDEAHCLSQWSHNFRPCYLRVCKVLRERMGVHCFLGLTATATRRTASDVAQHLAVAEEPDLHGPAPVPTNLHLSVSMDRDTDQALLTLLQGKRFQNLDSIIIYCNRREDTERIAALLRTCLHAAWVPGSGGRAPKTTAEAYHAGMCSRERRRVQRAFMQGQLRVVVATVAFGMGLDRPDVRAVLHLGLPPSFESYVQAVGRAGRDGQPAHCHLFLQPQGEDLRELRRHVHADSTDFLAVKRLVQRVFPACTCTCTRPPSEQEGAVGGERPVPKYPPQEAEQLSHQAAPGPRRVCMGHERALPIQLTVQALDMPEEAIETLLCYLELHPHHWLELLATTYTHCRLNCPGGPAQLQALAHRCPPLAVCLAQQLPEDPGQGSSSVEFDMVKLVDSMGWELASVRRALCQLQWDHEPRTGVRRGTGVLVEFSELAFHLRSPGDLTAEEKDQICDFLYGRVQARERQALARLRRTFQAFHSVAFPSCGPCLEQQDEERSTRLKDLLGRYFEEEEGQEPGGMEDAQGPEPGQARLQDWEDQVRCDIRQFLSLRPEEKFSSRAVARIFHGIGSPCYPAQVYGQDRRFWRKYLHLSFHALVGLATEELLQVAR

[2] = biological target: T2, 3×FLAG-tagged RQ4-2D (RECQL4 Ser89Asp/Ser251Asp) (human) (UniProt O94761); assay: as above
T2 sequence: T1 sequence with S89D, S251D

DDB1 (from UniProt Q16531 1-1140) was tested. Which binding [1] did it give?
The binding was “binds”.

And the binding [2]?
Its binding is “binds”.
